Laboratory results: PubChem BioAssay AID1671195 (Yale University, 2021)

Purpose: 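Genes whose knockdown alters LDL uptake in liver cancer cells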 (primary screen)
System: human Huh7 hepatoma cells
Reagent: siRNA pool against human genes, 18 nM
Duration: about 2 to 2.5 days of knockdown, then 8 h LDL uptake
Conditions: DiI-labelled LDL at 30 µg/ml for 8 h, in lipoprotein-deficient serum medium
Detection: 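Fluorescent LDL signal imaged in cells, scaled to the plate median, robust z-score for each replicate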
Reading the numbers: robust z-score: higher = more LDL uptake after knockdown
Hit rule: 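a gene counts as active if at least two replicate z-scores exceed ±2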
Shown is one part, drawn at random, of about 22,000 reagents. About 1,510 of all reagents (6.9%) were called active. 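Active includes knockdowns raising or lowering LDL uptake; positive z-scores mean more uptake, negative mean less.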 The numbers tell different reagents against one gene apart.

target	pool no.	robust z-score, replicate 1	robust z-score, replicate 2	robust z-score, replicate 3	activity call
DSG3 (GeneID 1830)	1	-0.978	-0.837	-0.856	inactive
LOC440962 (retired record) (GeneID 440962)	1	0.432	0.629	0.312	inactive
BEST1 (GeneID 7439)	1	-0.934	-1.34	-0.936	inactive
FAR2P1 (GeneID 440905)	1	-0.985	-0.527	-0.658	inactive
LOC441922 (retired record) (GeneID 441922)	1	-0.23	-0.487	-0.525	inactive
TBK1 (GeneID 29110)	1	0.145	-0.0357	0.551	inactive
ZFR (GeneID 51663)	1	0.249	-0.209	0.613	inactive
C3orf38 (GeneID 285237)	1	-0.718	-0.442	-0.59	inactive
SLC5A5 (GeneID 6528)	1	-2.78	-2.8	-2.55	active
FOXS1 (GeneID 2307)	1	-1.15	-1.42	-1.32	inactive
MOB1B (GeneID 92597)	1	1.3	0.0613	-0.603	inactive
CR2 (GeneID 1380)	1	-0.448	-1.02	-1.26	inactive
EDF1 (GeneID 8721)	1	-1.91	-1.23	-2.18	active
SPAM1 (GeneID 6677)	1	0.534	-0.0398	0.316	inactive
CAPN3 (GeneID 825)	1	-2.71	-2.23	-2.23	active
LOC390282 (GeneID 390282)	1	-0.212	-0.332	-0.371	inactive
TOR3A (GeneID 64222)	1	-1.34	-1.54	-1.67	inactive
H2AC12 (GeneID 85235)	1	-0.537	-0.201	0.12	inactive
EMID1 (GeneID 129080)	1	-0.184	-0.09	0.624	inactive
VAX1 (GeneID 11023)	1	1.86	1.43	1.11	inactive
NCK2 (GeneID 8440)	1	1.42	1.27	1.19	inactive
PPDPFL (GeneID 492307)	1	-1.26	-1.45	-1.57	inactive
STARD7 (GeneID 56910)	1	0.704	0.397	2.11	inactive
MCMDC2 (GeneID 157777)	1	0.165	1.64	0.449	inactive
ARRDC4 (GeneID 91947)	1	0.111	0.925	1.1	inactive
CHEK1 (GeneID 1111)	1	-1.24	-0.315	-0.874	inactive
SKAP2 (GeneID 8935)	1	0.43	2.25	1.67	inactive
LIF (GeneID 3976)	1	-0.607	-0.263	-0.278	inactive
RIPK2 (GeneID 8767)	1	-0.245	-0.713	-0.534	inactive
DUSP14 (GeneID 11072)	1	0.00936	0.45	-0.18	inactive
RBM14 (GeneID 10432)	1	2.01	1.86	2.04	active
RBM14 (GeneID 10432)	2	-0.209	0.307	0.238	inactive
LOC442280 (retired record) (GeneID 442280)	1	-1.08	-1.11	0.145	inactive
KCNJ9 (GeneID 3765)	1	-0.509	-1.37	-0.206	inactive
PARP1 (GeneID 142)	1	-0.666	0.799	-0.483	inactive
SGSH (GeneID 6448)	1	-0.595	0.543	-0.233	inactive
DUSP3 (GeneID 1845)	1	0.222	0.377	0.843	inactive
ADGRF4 (GeneID 221393)	1	-0.985	-0.433	-1.28	inactive
DYNLT3 (GeneID 6990)	1	0.00228	-0.366	-0.263	inactive
CD52 (GeneID 1043)	1	-0.667	-1.09	1.67	inactive
OR4C12 (GeneID 283093)	1	-0.119	-0.387	-0.137	inactive
CSF3R (GeneID 1441)	1	1.44	0.709	1.21	inactive
POLE (GeneID 5426)	1	-1.42	-1.23	-0.808	inactive
ATF7 (GeneID 11016)	1	1.36	1.31	2.42	inactive
SVOP (GeneID 55530)	1	-0.478	-0.694	0.0553	inactive
CHST9 (GeneID 83539)	1	-1.38	-1.03	-1.73	inactive
LOC441824 (retired record) (GeneID 441824)	1	-1.49	-1.23	-1.27	inactive
RHOT2 (GeneID 89941)	1	0.875	0.545	2.24	inactive
DOK2 (GeneID 9046)	1	2.8	-0.78	0.173	inactive
ENPP3 (GeneID 5169)	1	0.175	-0.0763	-0.371	inactive
NPC1 (GeneID 4864)	1	1.63			active
NPC1 (GeneID 4864)	2	0.321	0.457	0.141	inactive
WDR74 (GeneID 54663)	1	-0.297	0.964	0.447	inactive
LCN9 (GeneID 392399)	1	-1.13	-1.06	-1.13	inactive
NRBP1 (GeneID 29959)	1	0.207	-0.122	-0.132	inactive
RPL7 (GeneID 6129)	1	-1.69	-0.716	-1.65	inactive
PIGN (GeneID 23556)	1	0.806	0.346	0.858	inactive
SRSF6 (GeneID 6431)	1	-1.05	-1.31	-0.531	inactive
ARV1 (GeneID 64801)	1	-2.08	-1.81	-1.55	inactive
ETHE1 (GeneID 23474)	1	-0.517	-0.438	-0.059	inactive
SLC2A2 (GeneID 6514)	1	-1.63	-1.96	-1.56	inactive
RPS26P17 (GeneID 391165)	1	1.09	1.13	0.612	inactive
ADAMTS4 (GeneID 9507)	1	0.0674	0.179	0.163	inactive
TEDAR (GeneID 388699)	1	-0.643	-0.543	-0.126	inactive
ALDH3A1 (GeneID 218)	1	0.601	0.418	-0.412	inactive
SRRM2-AS1 (GeneID 100128788)	1	-1.25	-0.465	-1.79	inactive
CEP89 (GeneID 84902)	1	0.461	-0.329	0.518	inactive
CSNK2B (GeneID 1460)	1	-0.883	0.0165	-0.619	inactive

Part of the list above, set out differently:
{"target": "LIF (GeneID 3976)", "pool no.": 1, "robust z-score, replicate 1": -0.607, "robust z-score, replicate 2": -0.263, "robust z-score, replicate 3": -0.278, "activity call": "inactive"}
{"target": "RIPK2 (GeneID 8767)", "pool no.": 1, "robust z-score, replicate 1": -0.245, "robust z-score, replicate 2": -0.713, "robust z-score, replicate 3": -0.534, "activity call": "inactive"}
{"target": "DUSP14 (GeneID 11072)", "pool no.": 1, "robust z-score, replicate 1": 0.00936, "robust z-score, replicate 2": 0.45, "robust z-score, replicate 3": -0.18, "activity call": "inactive"}
{"target": "RBM14 (GeneID 10432)", "pool no.": 1, "robust z-score, replicate 1": 2.01, "robust z-score, replicate 2": 1.86, "robust z-score, replicate 3": 2.04, "activity call": "active"}
{"target": "RBM14 (GeneID 10432)", "pool no.": 2, "robust z-score, replicate 1": -0.209, "robust z-score, replicate 2": 0.307, "robust z-score, replicate 3": 0.238, "activity call": "inactive"}
{"target": "LOC442280 (retired record) (GeneID 442280)", "pool no.": 1, "robust z-score, replicate 1": -1.08, "robust z-score, replicate 2": -1.11, "robust z-score, replicate 3": 0.145, "activity call": "inactive"}
{"target": "KCNJ9 (GeneID 3765)", "pool no.": 1, "robust z-score, replicate 1": -0.509, "robust z-score, replicate 2": -1.37, "robust z-score, replicate 3": -0.206, "activity call": "inactive"}
{"target": "PARP1 (GeneID 142)", "pool no.": 1, "robust z-score, replicate 1": -0.666, "robust z-score, replicate 2": 0.799, "robust z-score, replicate 3": -0.483, "activity call": "inactive"}
{"target": "SGSH (GeneID 6448)", "pool no.": 1, "robust z-score, replicate 1": -0.595, "robust z-score, replicate 2": 0.543, "robust z-score, replicate 3": -0.233, "activity call": "inactive"}
